From PMC4860841, “eIF2 interactions with initiator tRNA and eIF2B are regulated by post-translational modifications and conformational dynamics” (Cell Discovery, 2015)
No constants are given. Whether binding was seen depends on the method and setting. In cells and extracts the contact can be indirect. These calls come from enrichment with a bait or labelling near it, and not all partners need be listed. Sequences can lack the tags named with a protein.

T1: eukaryotic initiation factor 2B γ-subunit (eIF2Bγ), FLAG-tagged (Saccharomyces cerevisiae) (UniProt P09032)
T1 sequence (chain, found in the purified protein (Table 1), pS296, acK346): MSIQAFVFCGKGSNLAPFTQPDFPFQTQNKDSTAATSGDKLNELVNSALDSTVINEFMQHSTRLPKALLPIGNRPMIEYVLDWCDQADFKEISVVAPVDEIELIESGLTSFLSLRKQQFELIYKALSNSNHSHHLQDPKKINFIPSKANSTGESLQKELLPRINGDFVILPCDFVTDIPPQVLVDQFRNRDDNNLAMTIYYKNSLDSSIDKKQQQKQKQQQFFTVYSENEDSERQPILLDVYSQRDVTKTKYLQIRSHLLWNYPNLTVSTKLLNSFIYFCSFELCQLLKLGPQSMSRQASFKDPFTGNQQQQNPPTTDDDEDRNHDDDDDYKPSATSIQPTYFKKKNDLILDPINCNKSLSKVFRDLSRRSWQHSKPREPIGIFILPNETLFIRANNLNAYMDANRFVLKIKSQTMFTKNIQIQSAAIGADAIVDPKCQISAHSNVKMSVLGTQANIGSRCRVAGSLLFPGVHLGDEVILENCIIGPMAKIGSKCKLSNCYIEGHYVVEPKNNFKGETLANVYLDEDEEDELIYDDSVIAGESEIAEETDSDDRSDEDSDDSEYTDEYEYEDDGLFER

B1: eukaryotic initiation factor 2B ε-subunit (eIF2Bε) (protein, UniProt P32501 1-712)
chain: MAGKKGQKKSGLGNHGKNSDMDVEDRLQAVVLTDSYETRFMPLTAVKPRCLLPLANVPLIEYTLEFLAKAGVHEVFLICSSHANQINDYIENSKWNLPWSPFKITTIMSPEARCTGDVMRDLDNRGIITGDFILVSGDVLTNIDFSKMLEFHKKMHLQDKDHISTMCLSKASTYPKTRTIEPAAFVLDKSTSRCIYYQDLPLPSSREKTSIQIDPELLDNVDEFVIRNDLIDCRIDICTSHVPLIFQENFDYQSLRTDFVKGVISSDILGKHIYAYLTDEYAVRVESWQTYDTISQDFLGRWCYPLVLDSNIQDDQTYSYESRHIYKEKDVVLAQSCKIGKCTAIGSGTKIGEGTKIENSVIGRNCQIGENIRIKNSFIWDDCIIGNNSIIDHSLIASNATLGSNVRLNDGCIIGFNVKIDDNMDLDRNTKISASPLKNAGSRMYDNESNEQFDQDLDDQTLAVSIVGDKGVGYIYESEVSDDEDSSTEACKEINTLSNQLDELYLSDDSISSATKKTKKRRTMSVNSIYTDREEIDSEFEDEDFEKEGIATVERAMENNHDLDTALLELNTLRMSMNVTYHEVRIATITALLRRVYHFIATQTLGPKDAVVKVFNQWGLLFKRQAFDEEEYIDLMNIIMEKIVEQSFDKPDLILFSALVSLYDNDIIEEDVIYKWWDNVSTDPRYDEVKKLTVKWVEWLQNADEESSSEEE
modifications: found in the purified protein (Table 1): pS435, pS449, pS525, pS538
B2: eukaryotic initiation factor 2B α-subunit (eIF2Bα) (protein, UniProt P14741 1-305)
chain: MSEFNITETYLRFLEEDTEMTMPIAAIEALVTLLRIKTPETAAEMINTIKSSTEELIKSIPNSVSLRAGCDIFMRFVLRNLHLYGDWENCKQHLIENGQLFVSRAKKSRNKIAEIGVDFIADDDIILVHGYSRAVFSLLNHAANKFIRFRCVVTESRPSKQGNQLYTLLEQKGIPVTLIVDSAVGAVIDKVDKVFVGAEGVAESGGIINLVGTYSVGVLAHNARKPFYVVTESHKFVRMFPLSSDDLPMAGPPLDFTRRTDDLEDALRGPTIDYTAQEYITALITDLGVLTPSAVSEELIKMWYD
modifications: found in the purified protein (Table 1): N-term-ac-S2, pY166
B3: eukaryotic initiation factor 2B β-subunit (eIF2Bβ) (protein, UniProt P32502 1-381)
chain: MSSQAFTSVHPNAATSDVNVTIDTFVAKLKRRQVQGSYAIALETLQLLMRFISAARWNHVNDLIEQIRDLGNSLEKAHPTAFSCGNVIRRILAVLRDEVEEDTMSTTVTSTSVAEPLISSMFNLLQKPEQPHQNRKNSSGSSSMKTKTDYRQVAIQGIKDLIDEIKNIDEGIQQIAIDLIHDHEILLTPTPDSKTVLKFLITARERSNRTFTVLVTEGFPNNTKNAHEFAKKLAQHNIETLVVPDSAVFALMSRVGKVIIGTKAVFVNGGTISSNSGVSSVCECAREFRTPVFAVAGLYKLSPLYPFDVEKFVEFGGSQRILPRMDPRKRLDTVNQITDYVPPENIDIYITNVGGFNPSFIYRIAWDNYKQIDVHLDKNKA
modifications: found in the purified protein (Table 1): N-term-ac-S2
B4: eukaryotic initiation factor 2B δ-subunit (eIF2Bδ) (protein, UniProt P12754 1-651)
chain: MSESEAKSRSATPPSKAKQATPTTTAAANGEKKLTNKELKELKKQEKAAKRAAMKQANGISIEQQQQQAQMKKEKKQLQREQQQKREQKQKNANKKKQNERNVKKSTLFGHLETTEERRATILALTSAVSSPKTSRITAAGLMVPVVASALSGSNVLTASSLMPVGPNASSTVSASAPASTTTTLPASSAALSAGTSSASTNTPTAIQQEIASSNASDVAKTLASISLEAGEFNVIPGISSVIPTVLEQSFDNSSLISSVKELLLNKDLIHPSILLLTSHLAHYKIVGSIPRCIAMLEVFQIVIKDYQTPKGTTLSRNLTSYLSHQIDLLKKARPLSVTMGNAIRWLKQEISLIDPSTPDKAAKKDLCEKIGQFAKEKIELADQLIIDNASTQIEESTTIVTYGSSKVLTELLLHNAISLKKNIKVIVVDSRPLFEGRKMAETLRNAGVNVMYALITSLDTIFNMDVDYVFLGAHSILSNGFLYSRAGTAMLAMSAKRRNIPVLVCCESLKFSQRVQLDSVTFNELADPNDLVNIDYENPVERRGNKGALLNQFIKERKFEKKKLAMENKPKGNKIGGKKGSEGESKDASNEEDSNSKNILDGWQELPSLNIVNILYDLTPPEYIKKVITEFGALPPSSVPVILREYKGSA
modifications: found in the purified protein (Table 1): pS131

target: T1, eukaryotic initiation factor 2B γ-subunit (eIF2Bγ), FLAG-tagged (Saccharomyces cerevisiae); test: affinity purification with mass spectrometry; FLAG-tagged eIF2B (tag on GCD1) from yeast lysate on anti-FLAG resin in high-salt buffer (500 mM KCl), washed with 500 mM ammonium acetate, eluted with FLAG peptide; LC-MS/MS of the subunits for PTM analysis

binding, binds:
B1
B2
B3
B4
